B1: sp¦P41240¦CSK_HUMAN (protein, UniProt P41240 2-450, looked up)
Tyrosine-protein kinase CSK: SAIQAAWPSGTECIAKYNFHGTAEQDLPFCKGDVLTIVAVTKDPNWYKAKNKVGREGIIPANYVQKREGVKAGTKLSLMPWFHGKITREQAERLLYPPETGLFLVRESTNYPGDYTLCVSCDGKVEHYRIMYHASKLSIDEEVYFENLMQLVEHYTSDADGLCTRLIKPKVMEGTVAAQDEFYRSGWALNMKELKLLQTIGKGEFGDVMLGDYRGNKVAVKCIKNDATAQAFLAEASVMTQLRHSNLVQLLGVIVEEKGGLYIVTEYMAKGSLVDYLRSRGRSVLGGDCLLKFSLDVCEAMEYLEGNNFVHRDLAARNVLVSEDNVAKVSDFGLTKEASSTQDTGKLPVKWTAPEALREKKFSTKSDVWSFGILLWEIYSFGRVPYPRIPLKDVVPRVEKGYKMDAPDGCPPAVYEVMKNCWHLDAAMRPSFLQLREQLEHIKTHELHL
B2: sp¦P14868¦SYDC_HUMAN (protein, UniProt P14868 1-501, looked up)
Aspartate--tRNA ligase, …: MPSASASRKSQEKPREIMDAAEDYAKERYGISSMIQSQEKPDRVLVRVRDLTIQKADEVVWVRARVHTSRAKGKQCFLVLRQQQFNVQALVAVGDHASKQMVKFAANINKESIVDVEGVVRKVNQKIGSCTQQDVELHVQKIYVISLAEPRLPLQLDDAVRPEAEGEEEGRATVNQDTRLDNRVIDLRTSTSQAVFRLQSGICHLFRETLINKGFVEIQTPKIISAASEGGANVFTVSYFKNNAYLAQSPQLYKQMCICADFEKVFSIGPVFRAEDSNTHRHLTEFVGLDIEMAFNYHYHEVMEEIADTMVQIFKGLQERFQTEIQTVNKQFPCEPFKFLEPTLRLEYCEALAMLREAGVEMGDEDDLSTPNEKLLGHLVKEKYDTDFYILDKYPLAVRPFYTMPDPRNPKQSNSYDMFMRGEEILSGAQRIHDPQLLTERALHHGIDLEKIKAYIDSFRFGAPPHAGGGIGLERVTMLFLGLHNVRQTSMFPRDPKRLTP
B3: sp¦P46109¦CRKL_HUMAN (protein, UniProt P46109 1-303, looked up)
Crk-like protein: MSSARFDSSDRSAWYMGPVSRQEAQTRLQGQRHGMFLVRDSSTCPGDYVLSVSENSRVSHYIINSLPNRRFKIGDQEFDHLPALLEFYKIHYLDTTTLIEPAPRYPSPPMGSVSAPNLPTAEDNLEYVRTLYDFPGNDAEDLPFKKGEILVIIEKPEEQWWSARNKDGRVGMIPVPYVEKLVRSSPHGKHGNRNSNSYGIPEPAHAYAQPQTTTPLPAVSGSPGAAITPLPSTQNGPVFAKAIQKRVPCAYDKTALALEVGDIVKVTRMNINGQWEGEVNGRKGLFPFTHVKIFDPQNPDENE
B4: sp¦P17174¦AATC_HUMAN (protein, UniProt P17174 2-413, looked up)
Aspartate aminotransferase, …: APPSVFAEVPQAQPVLVFKLTADFREDPDPRKVNLGVGAYRTDDCHPWVLPVVKKVEQKIANDNSLNHEYLPILGLAEFRSCASRLALGDDSPALKEKRVGGVQSLGGTGALRIGADFLARWYNGTNNKNTPVYVSSPTWENHNAVFSAAGFKDIRSYRYWDAEKRGLDLQGFLNDLENAPEFSIVVLHACAHNPTGIDPTPEQWKQIASVMKHRFLFPFFDSAYQGFASGNLERDAWAIRYFVSEGFEFFCAQSFSKNFGLYNERVGNLTVVGKEPESILQVLSQMEKIVRITWSNPPAQGARIVASTLSNPELFEEWTGNVKTMADRILTMRSELRARLEALKTPGTWNHITDQIGMFSFTGLNPKQVEYLVNEKHIYLLPSGRINVSGLTTKNLDYVATSIHEAVTKIQ
B5: sp¦Q9HAV7¦GRPE1_HUMAN (protein, UniProt Q9HAV7 28-217, looked up)
GrpE protein homolog 1, …: CTATKQKNSGQNLEEDMGQSEQKADPPATEKTLLEEKVKLEEQLKETVEKYKRALADTENLRQRSQKLVEEAKLYGIQAFCKDLLEVADVLEKATQCVPKEEIKDDNPHLKNLYEGLVMTEVQIQKVFTKHGLLKLNPVGAKFDPYEHEALFHTPVEGKEPGTVALVSKVGYKLHGRTLRPALVGVVKEA
B6: sp¦P53396¦ACLY_HUMAN (protein, UniProt P53396 1-1101, looked up)
ATP-citrate synthase: MSAKAISEQTGKELLYKFICTTSAIQNRFKYARVTPDTDWARLLQDHPWLLSQNLVVKPDQLIKRRGKLGLVGVNLTLDGVKSWLKPRLGQEATVGKATGFLKNFLIEPFVPHSQAEEFYVCIYATREGDYVLFHHEGGVDVGDVDAKAQKLLVGVDEKLNPEDIKKHLLVHAPEDKKEILASFISGLFNFYEDLYFTYLEINPLVVTKDGVYVLDLAAKVDATADYICKVKWGDIEFPPPFGREAYPEEAYIADLDAKSGASLKLTLLNPKGRIWTMVAGGGASVVYSDTICDLGGVNELANYGEYSGAPSEQQTYDYAKTILSLMTREKHPDGKILIIGGSIANFTNVAATFKGIVRAIRDYQGPLKEHEVTIFVRRGGPNYQEGLRVMGEVGKTTGIPIHVFGTETHMTAIVGMALGHRPIPNQPPTAAHTANFLLNASGSTSTPAPSRTASFSESRADEVAPAKKAKPAMPQDSVPSPRSLQGKSTTLFSRHTKAIVWGMQTRAVQGMLDFDYVCSRDEPSVAAMVYPFTGDHKQKFYWGHKEILIPVFKNMADAMRKHPEVDVLINFASLRSAYDSTMETMNYAQIRTIAIIAEGIPEALTRKLIKKADQKGVTIIGPATVGGIKPGCFKIGNTGGMLDNILASKLYRPGSVAYVSRSGGMSNELNNIISRTTDGVYEGVAIGGDRYPGSTFMDHVLRYQDTPGVKMIVVLGEIGGTEEYKICRGIKEGRLTKPIVCWCIGTCATMFSSEVQFGHAGACANQASETAVAKNQALKEAGVFVPRSFDELGEIIQSVYEDLVANGVIVPAQEVPPPTVPMDYSWARELGLIRKPASFMTSICDERGQELIYAGMPITEVFKEEMGIGGVLGLLWFQKRLPKYSCQFIEMCLMVTADHGPAVSGAHNTIICARAGKDLVSSLTSGLLTIGDRFGGALDAAAKMFSKAFDSGIIPMEFVNKMKKEGKLIMGIGHRVKSINNPDMRVQILKDYVRQHFPATPLLDYALEVEKITTSKKPNLILNVDGLIGVAFVDMLRNCGSFTREEADEYIDIGALNGIFVLGRSMGFIGHYLDQKRLKQGLYRHPWDDISYVLPEHMSM
B7: sp¦O43865¦SAHH2_HUMAN (protein, UniProt O43865 2-530, looked up)
S-adenosylhomocysteine …: SMPDAMPLPGVGEELKQAKEIEDAEKYSFMATVTKAPKKQIQFADDMQEFTKFPTKTGRRSLSRSISQSSTDSYSSAASYTDSSDDEVSPREKQQTNSKGSSNFCVKNIKQAEFGRREIEIAEQDMSALISLRKRAQGEKPLAGAKIVGCTHITAQTAVLIETLCALGAQCRWSACNIYSTQNEVAAALAEAGVAVFAWKGESEDDFWWCIDRCVNMDGWQANMILDDGGDLTHWVYKKYPNVFKKIRGIVEESVTGVHRLYQLSKAGKLCVPAMNVNDSVTKQKFDNLYCCRESILDGLKRTTDVMFGGKQVVVCGYGEVGKGCCAALKALGAIVYITEIDPICALQACMDGFRVVKLNEVIRQVDVVITCTGNKNVVTREHLDRMKNSCIVCNMGHSNTEIDVTSLRTPELTWERVRSQVDHVIWPDGKRVVLLAEGRLLNLSCSTVPTFVLSITATTQALALIELYNAPEGRYKQDVYLLPKKMDEYVASLHLPSFDAHLTELTDDQAKYLGLNKNGPFKPNYYRY
B8: sp¦Q96C01¦F136A_HUMAN (protein, UniProt Q96C01 2-138, looked up)
Protein FAM136A: AELQQLRVQEAVESMVKSLERENIRKMQGLMFRCSASCCEDSQASMKQVHQCIERCHVPLAQAQALVTSELEKFQDRLARCTMHCNDKAKDSIDAGSKELQVKQQLDSCVTKCVDDHMHLIPTMTKKMKEALLSIGK

This series concerns human HL60 cells. As to the kind of experiment: SWATH-MS proteomics, differential protein representation, akirin2 KO vs WT HL60 cells. To be noted: akirin2 KO vs WT HL60 cells, SWATH-MS; sheet "Under-represented in KO". In kind it is cell-based. As for the experimental part:
Total proteins were extracted from WT and akirin2 KO HL60 cells using the AllPrep DNA/RNA/Protein Mini Kit (Qiagen) and protein concentration was determined using the BCA Protein Assay with BSA (Sigma–Aldrich) as standard. Protein extracts (150 µg per sample, n=3 biological replicates) from each WT and KO cells were trypsin digested using the FASP Protein Digestion Kit (Expedeon Ltd., Abcam, Cambridge, U.K.) and sequencing grade trypsin (Promega, Madison, WI, U.S.A.) following manufacturer’s recommendations. The resulting peptides were finally desalted on to OMIX Pipette tips C18 (Agilent Technologies, Santa Clara, CA, U.S.A.), dried down and stored at −20 °C until mass spectrometry analysis. […] Three micrograms of each protein digest from the three biological replicates of WT and akirin2 KO HL60 cells were used for the generation of the reference spectral ion library as part of the SWATH-MS analysis.
Peptides were eluted in a 120-min gradient from 5 to 30% solvent B in solvent A followed by 15-min gradient from 30 to 60% solvent B in solvent A (solvent A: 0.1% formic acid in water, solvent B: 0.1% formic acid in acetonitrile) and directly injected into the mass spectrometer for analysis. For IDA experiments, the mass spectrometer was set to scanning full spectra (350–1400 m/z) using 250 ms accumulation time per spectrum, followed by up to 50 MS/MS scans (100–1500 m/z). Candidate ions with a charge state between +2 and +5 counts per second above a minimum threshold of 100 were isolated for fragmentation. One MS/MS spectrum was collected for 100 ms, before adding those precursor ions to the exclusion list for 15 s (mass spectrometer operated by Analyst TF 1.6, AB Sciex). Dynamic background subtraction was turned off. MS/MS analyses were recorded in high-sensitivity mode with rolling collision energy on and a collision energy spread of 5. For SWATH quantitative analysis, six independent samples (three replicates from WT and akirin2 KO HL60 cells, 5 µg each) were subjected to the cyclic DIA of mass spectra using the SWATH variable windows calculator (V 1.0, AB Sciex) and the SWATH acquisition method editor (AB Sciex), similar to established methods. […] For these experiments, a 50-ms survey scan (350–1400 m/z) was acquired at the beginning of each cycle, and SWATH–MS/MS spectra were collected from 100–1500 m/z for 70 ms at high-sensitivity mode, resulting in a cycle time of 3.6 s. Collision energy for each window was determined according to the calculation for a charge +2 ion-centered upon the window with a collision energy spread of 15. To create a spectral library of all the detectable peptides in the samples, the IDA MS raw files were combined and subjected to database search in unison using ProteinPilot software v. 5.0.1 (AB Sciex) with the Paragon algorithm. […] The detected protein threshold was set at 0.05. An independent false discovery rate (FDR) analysis, using the target–decoy approach provided by Protein Pilot (AB Sciex; https://sciex.com/products/software/proteinpilot-software), was used to assess the quality of identifications. Positive identifications were considered when identified proteins reached 1% of global FDR. […] Global normalization was performed according to the Total Area Sums (TAS) of all detected proteins in the samples. […] Heatmaps were prepared using the Heatmapper (http://www.heatmapper.ca/expression/) with average linkage and Euclidean distance measurement method.
Consider B1, for which the “Fold Change” value was 0.8017 and the “Log (Fold Change)” value is -0.096.

Turning to B2, the “Fold Change” value was found to be 0.8089 and the “Log (Fold Change)” value is recorded as -0.09212.

Consider B3, for which the “Fold Change” value turned out to be 0.8005 and the “Log (Fold Change)” value is listed as -0.09661.

Consider B4, for which the “Fold Change” value is given as 0.8155 and the “Log (Fold Change)” value is on record as -0.08859.

With B5, the “Fold Change” value stood at 0.8165 and the “Log (Fold Change)” value is listed as -0.08804.

With B6, the “Fold Change” value is 0.7979 and the “Log (Fold Change)” value is listed as -0.09806.

B7: the “Fold Change” value came to 0.8156 and the “Log (Fold Change)” value was -0.08853.

With B8, the “Fold Change” value was determined as 0.8101 and the “Log (Fold Change)” value is -0.09148.
